Assay results published in paper PMC3465347, “Regulation of NF-κB Activation through a Novel PI-3K-Independent and PKA/Akt-Dependent Pathway in Human Umbilical Vein Endothelial Cells” (PLoS ONE, 2012).
Results are given in words; binding and its absence hold for the method and conditions named. Some results given as binding are weak or reduced against the parent protein; the word gives no strength.

By UniProt entry, the sequences of proteins in these tests, tags left out. Residues count along the entry.
UniProt Q04206: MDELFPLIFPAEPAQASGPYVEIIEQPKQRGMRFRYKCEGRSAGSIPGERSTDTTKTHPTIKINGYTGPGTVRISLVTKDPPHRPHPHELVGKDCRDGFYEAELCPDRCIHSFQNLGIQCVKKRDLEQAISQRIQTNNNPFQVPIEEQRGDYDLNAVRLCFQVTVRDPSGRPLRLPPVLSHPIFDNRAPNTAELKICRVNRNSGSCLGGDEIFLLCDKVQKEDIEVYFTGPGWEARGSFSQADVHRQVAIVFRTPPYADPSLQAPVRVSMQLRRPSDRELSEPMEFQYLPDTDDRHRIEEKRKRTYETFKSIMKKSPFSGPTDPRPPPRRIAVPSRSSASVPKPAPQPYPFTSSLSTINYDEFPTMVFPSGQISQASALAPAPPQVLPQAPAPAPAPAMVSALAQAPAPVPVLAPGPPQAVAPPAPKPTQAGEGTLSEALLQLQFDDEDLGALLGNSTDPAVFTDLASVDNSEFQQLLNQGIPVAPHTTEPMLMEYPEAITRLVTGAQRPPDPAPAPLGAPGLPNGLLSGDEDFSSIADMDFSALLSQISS
UniProt P19838, residues 1-433: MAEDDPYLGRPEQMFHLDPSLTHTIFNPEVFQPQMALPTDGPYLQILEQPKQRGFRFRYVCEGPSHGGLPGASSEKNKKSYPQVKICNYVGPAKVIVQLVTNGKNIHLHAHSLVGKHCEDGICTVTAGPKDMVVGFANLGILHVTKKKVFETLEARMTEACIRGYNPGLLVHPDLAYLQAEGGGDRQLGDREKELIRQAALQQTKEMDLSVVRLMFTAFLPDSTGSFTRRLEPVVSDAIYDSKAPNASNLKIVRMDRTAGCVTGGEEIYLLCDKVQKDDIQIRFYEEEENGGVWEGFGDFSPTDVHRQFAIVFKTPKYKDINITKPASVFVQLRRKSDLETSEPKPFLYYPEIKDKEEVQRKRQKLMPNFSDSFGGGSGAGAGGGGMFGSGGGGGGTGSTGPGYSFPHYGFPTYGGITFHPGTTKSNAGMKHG

Biological target: NF-κB p65 subunit (human (endogenous in HUVECs)) (UniProt Q04206)
Assay: native gel or EMSA; supershift: nuclear extracts of TNF-α-stimulated HUVECs incubated with antibodies against p50 or p65 for 15 mins at 37°C, then EMSA with labelled NF-κB oligonucleotide

## NF-κB p50 subunit (from UniProt P19838 1-433)
  binding: binds
